PubChem BioAssay AID686938 | Drosophila RNAi Screening Center – 2013
In all, the deposit lists about 23,000 reagents; this is an unselected part of those with a known target gene and a result. Over the whole deposit, 75 (0.33%) were called active. 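Raw plate signals without normalisation; calls rest on plate z-scores that were not deposited; ratio present for only 364 wells.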 No sequences are given here. The record does not give: the dose of the treatment.

Aim: 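Looking for CRAC channel components and the factors controlling them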 (primary screen)
Cells: Drosophila S2R+ cells
Knock-down reagent: long dsRNA against Drosophila genes, about 0.25 µg dsRNA per well, roughly 10,000 cells
Time to read-out: 5 days of knock-down before the calcium assay
Conditions: thapsigargin (SERCA pump blocker) to empty calcium stores; entry signal taken 4 min after adding it
Measured: 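Duplicate raw fluo-4 intensities per well from a plate reader, at rest and four minutes after thapsigargin emptied calcium stores; entry-to-rest ratio filled for only some wells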
Reading the numbers: calcium entry signal: higher = stronger calcium signal after store depletion; resting calcium signal: higher = higher resting calcium signal
Units: calcium entry signal in fluorescence units; resting calcium signal in fluorescence units
Active means: 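Hit if the duplicate-averaged plate z-score for entry over resting signal is under −3; wells with weak total dye signal (Fmax z < −2) or more than 5 off-targets removed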
Meaning of the calls: active = strongly reduced calcium entry; inactive = no strong reduction

CG9667 [DRSC16535]: calcium entry signal, replicate 1 = 3.19e7; calcium entry signal, replicate 2 = 4.61e7; resting calcium signal, replicate 1 = 2.06e7; resting calcium signal, replicate 2 = 3.14e7; Outcome = inactive
CG7377 [DRSC10830]: calcium entry signal, replicate 1 = 2.65e7; calcium entry signal, replicate 2 = 3.34e7; resting calcium signal, replicate 1 = 1.48e7; resting calcium signal, replicate 2 = 1.51e7; Outcome = inactive
CG30178 [DRSC21911]: calcium entry signal, replicate 1 = 4.00e7; calcium entry signal, replicate 2 = 3.35e7; resting calcium signal, replicate 1 = 2.45e7; resting calcium signal, replicate 2 = 1.68e7; Outcome = inactive
Rcd5 (Reduction in Cnn dots 5) [DRSC08180]: calcium entry signal, replicate 1 = 4.29e7; calcium entry signal, replicate 2 = 3.08e7; resting calcium signal, replicate 1 = 3.13e7; resting calcium signal, replicate 2 = 1.71e7; Outcome = inactive
Ets65A (Ets at 65A) [DRSC09968]: calcium entry signal, replicate 1 = 2.37e7; calcium entry signal, replicate 2 = 3.99e7; resting calcium signal, replicate 1 = 1.21e7; resting calcium signal, replicate 2 = 1.79e7; Outcome = inactive
Ets65A (Ets at 65A) [DRSC10738]: calcium entry signal, replicate 1 = 1.28e7; calcium entry signal, replicate 2 = 3.51e7; resting calcium signal, replicate 1 = 1.03e7; resting calcium signal, replicate 2 = 2.53e7; Outcome = inactive
Ets65A (Ets at 65A) [DRSC11164]: calcium entry signal, replicate 1 = 3.43e7; calcium entry signal, replicate 2 = 1.20e7; resting calcium signal, replicate 1 = 2.40e7; resting calcium signal, replicate 2 = 1.03e7; Outcome = active
CG9581 [DRSC20695]: calcium entry signal, replicate 1 = 4.06e7; calcium entry signal, replicate 2 = 4.78e7; resting calcium signal, replicate 1 = 1.98e7; resting calcium signal, replicate 2 = 2.04e7; Outcome = inactive
CG9581 [DRSC22247]: calcium entry signal, replicate 1 = 2.15e7; calcium entry signal, replicate 2 = 4.83e7; resting calcium signal, replicate 1 = 1.15e7; resting calcium signal, replicate 2 = 2.10e7; Outcome = inactive

2 entries from above, ordered by “resting calcium signal, replicate 1”, high to low.
Rcd5 (Reduction in Cnn dots 5) [DRSC08180]: calcium entry signal, replicate 1 = 4.29e7; calcium entry signal, replicate 2 = 3.08e7; resting calcium signal, replicate 1 = 3.13e7; resting calcium signal, replicate 2 = 1.71e7; Outcome = inactive
CG30178 [DRSC21911]: calcium entry signal, replicate 1 = 4.00e7; calcium entry signal, replicate 2 = 3.35e7; resting calcium signal, replicate 1 = 2.45e7; resting calcium signal, replicate 2 = 1.68e7; Outcome = inactive

Next reagents:
CG8001 [DRSC08611]: calcium entry signal, replicate 1 = 4.13e7; calcium entry signal, replicate 2 = 3.89e7; resting calcium signal, replicate 1 = 1.93e7; resting calcium signal, replicate 2 = 1.89e7; Outcome = inactive
CR42745 (retired record) [DRSC13756]: calcium entry signal, replicate 1 = 4.57e7; calcium entry signal, replicate 2 = 4.35e7; resting calcium signal, replicate 1 = 2.04e7; resting calcium signal, replicate 2 = 1.93e7; Outcome = inactive
ImpE1 (Ecdysone-inducible gene E1) [DRSC11195]: calcium entry signal, replicate 1 = 2.40e7; calcium entry signal, replicate 2 = 3.96e7; resting calcium signal, replicate 1 = 1.18e7; resting calcium signal, replicate 2 = 1.88e7; Outcome = inactive
ImpE1 (Ecdysone-inducible gene E1) [DRSC11196]: calcium entry signal, replicate 1 = 2.53e7; calcium entry signal, replicate 2 = 2.92e7; resting calcium signal, replicate 1 = 1.18e7; resting calcium signal, replicate 2 = 1.40e7; Outcome = inactive
CG34367 [DRSC02238]: calcium entry signal, replicate 1 = 4.19e7; calcium entry signal, replicate 2 = 6.64e7; resting calcium signal, replicate 1 = 2.02e7; resting calcium signal, replicate 2 = 2.61e7; Outcome = inactive
CG34367 [DRSC02850]: calcium entry signal, replicate 1 = 3.33e7; calcium entry signal, replicate 2 = 5.90e7; resting calcium signal, replicate 1 = 1.70e7; resting calcium signal, replicate 2 = 2.27e7; Outcome = inactive
CG4101 [DRSC10400]: calcium entry signal, replicate 1 = 5.13e7; calcium entry signal, replicate 2 = 7.85e7; resting calcium signal, replicate 1 = 2.40e7; resting calcium signal, replicate 2 = 2.94e7; Outcome = inactive
MtnC (Metallothionein C) [DRSC22879]: calcium entry signal, replicate 1 = 3.99e7; calcium entry signal, replicate 2 = 3.58e7; resting calcium signal, replicate 1 = 2.03e7; resting calcium signal, replicate 2 = 1.54e7; Outcome = inactive
ND-49L (NADH dehydrogenase (ubiquinone) 49 kDa subunit-like) [DRSC14437]: calcium entry signal, replicate 1 = 2.98e7; calcium entry signal, replicate 2 = 5.21e7; resting calcium signal, replicate 1 = 1.71e7; resting calcium signal, replicate 2 = 2.25e7; Outcome = inactive
CG6034 [DRSC10572]: calcium entry signal, replicate 1 = 4.04e7; calcium entry signal, replicate 2 = 4.45e7; resting calcium signal, replicate 1 = 1.94e7; resting calcium signal, replicate 2 = 1.74e7; Outcome = inactive
Psf2 (Partner of Sld Five 2) [DRSC00516]: calcium entry signal, replicate 1 = 1.87e7; calcium entry signal, replicate 2 = 1.99e7; resting calcium signal, replicate 1 = 1.07e7; resting calcium signal, replicate 2 = 9.69e6; Outcome = inactive
Gr93d (Gustatory receptor 93d) [DRSC21941]: calcium entry signal, replicate 1 = 4.10e7; calcium entry signal, replicate 2 = 6.45e7; resting calcium signal, replicate 1 = 1.96e7; resting calcium signal, replicate 2 = 3.08e7; Outcome = inactive
